In paper PMC4606454:

T1: His-MBP-KYP (Arabidopsis) (UniProt Q8GZB6)
T1 sequence: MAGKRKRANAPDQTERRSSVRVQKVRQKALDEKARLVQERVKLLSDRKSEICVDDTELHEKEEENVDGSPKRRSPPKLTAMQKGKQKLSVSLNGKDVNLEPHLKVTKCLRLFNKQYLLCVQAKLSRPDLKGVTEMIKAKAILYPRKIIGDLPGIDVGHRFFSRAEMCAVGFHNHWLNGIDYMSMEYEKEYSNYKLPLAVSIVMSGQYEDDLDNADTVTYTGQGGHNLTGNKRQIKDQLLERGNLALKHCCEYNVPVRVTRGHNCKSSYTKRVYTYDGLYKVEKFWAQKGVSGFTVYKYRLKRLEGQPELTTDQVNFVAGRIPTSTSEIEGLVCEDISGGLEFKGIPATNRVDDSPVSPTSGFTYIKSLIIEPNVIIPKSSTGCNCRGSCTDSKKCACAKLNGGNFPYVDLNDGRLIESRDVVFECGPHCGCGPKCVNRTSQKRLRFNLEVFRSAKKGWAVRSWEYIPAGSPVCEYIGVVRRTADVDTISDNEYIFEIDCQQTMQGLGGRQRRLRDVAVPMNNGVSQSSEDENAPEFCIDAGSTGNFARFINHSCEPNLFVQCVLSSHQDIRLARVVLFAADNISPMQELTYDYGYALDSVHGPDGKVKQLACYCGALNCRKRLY

T2: MBP-KYP SET domain (truncated KYP) (Arabidopsis) (UniProt Q8GZB6)
T2 sequence: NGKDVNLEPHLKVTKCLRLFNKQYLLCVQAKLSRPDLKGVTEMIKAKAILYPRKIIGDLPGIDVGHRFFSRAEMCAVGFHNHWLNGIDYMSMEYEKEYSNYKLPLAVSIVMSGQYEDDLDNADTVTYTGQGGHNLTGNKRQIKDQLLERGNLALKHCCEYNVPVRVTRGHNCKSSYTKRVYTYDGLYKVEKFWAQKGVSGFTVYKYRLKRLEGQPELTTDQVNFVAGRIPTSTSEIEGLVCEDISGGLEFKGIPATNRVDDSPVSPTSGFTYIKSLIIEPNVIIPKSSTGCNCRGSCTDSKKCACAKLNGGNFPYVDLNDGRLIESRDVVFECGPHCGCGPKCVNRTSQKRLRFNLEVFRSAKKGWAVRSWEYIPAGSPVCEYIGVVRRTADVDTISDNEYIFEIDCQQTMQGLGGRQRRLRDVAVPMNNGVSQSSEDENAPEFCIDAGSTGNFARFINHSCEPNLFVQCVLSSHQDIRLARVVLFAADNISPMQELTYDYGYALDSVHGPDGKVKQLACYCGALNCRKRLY

T3: CLuc-HA3-KYP (Arabidopsis) (UniProt Q8GZB6)
T3 sequence: T1 sequence

B1: CLuc-HA3-KYP (enzyme, UniProt Q8GZB6 1-624)
chain: T1 sequence

Experiments:
[1] = target: T1, His-MBP-KYP (Arabidopsis); assay: pull-down; 2.5 μg His-GST-tagged prey with 2.5 μg His-MBP-tagged bait, amylose resin, room temperature, 50 mM Tris-HCl pH 7.5, 150 mM NaCl, 0.6% Triton X-100; prey detected with anti-GST; both purified
[2] = target: T2, MBP-KYP SET domain (truncated KYP) (Arabidopsis); assay: as above
[3] = target: T3, CLuc-HA3-KYP (Arabidopsis); assay: split reporter; luciferase complementation imaging (LCI) in N. benthamiana leaves: Myc-TrAP-nLUC with cLUC-3HA-candidate proteins, 2 days after agroinfiltration, luciferin, EMCCD camera
[4] = target: Myc-TrAP-nLuc (not stated (TGMV or CaLCuV TrAP cloned)); assay: co-IP; N. benthamiana leaves co-infiltrated with 35S-Myc-TrAP-nLuc and cLuc-HA-KYP; IP with anti-c-Myc agarose at 4°C, 300 mM NaCl, 0.5% Triton X-100; blots with anti-Myc or anti-HA

Row | Molecule | binding [1] | binding [2] | binding [3] | binding [4]
1 | His-GST-CaLCuV-TrAP (Cabbage Leaf Curl Virus (CaLCuV)) | binds | binds | – | –
2 | His-GST-TGMV-TrAP (Tomato Golden Mosaic Virus (TGMV)) | binds | binds | – | –
3 | Myc-TrAP-nLuc | – | – | binds | –
4 | B1 | – | – | – | binds

Results are given in words; binding and its absence hold for the method and conditions named. A result given as binding can be weak or reduced; the word gives no strength. Where a sequence is shown, tags or fusion partners need not be part of it. For part of these data: In cells and extracts the contact can be indirect.
